Results from PubChem BioAssay AID588590 (National Center for Advancing Translational Sciences (NCATS), 2011).
About 4,000 (1%) of roughly 390,000 compounds were called active. This list was built around the results that the source calls inconclusive (neither active nor inactive); the mix of calls is not that of the screen. Calls come from the whole dose curve; as a rule, active = well fitted inhibition curve with a large enough effect; inconclusive = small, poorly fitted or top-dose-only effect, or another doubt; inactive = no such curve, though single readings can be large or run the other way. Where the call is inconclusive, the potency comes from a doubtful curve fit.

Chains of the proteins cited; added tags and fusions are not shown. Lines headed by an entry give the natural chain unless they say otherwise; changes in a name come on top.
UniProt Q9UNA4: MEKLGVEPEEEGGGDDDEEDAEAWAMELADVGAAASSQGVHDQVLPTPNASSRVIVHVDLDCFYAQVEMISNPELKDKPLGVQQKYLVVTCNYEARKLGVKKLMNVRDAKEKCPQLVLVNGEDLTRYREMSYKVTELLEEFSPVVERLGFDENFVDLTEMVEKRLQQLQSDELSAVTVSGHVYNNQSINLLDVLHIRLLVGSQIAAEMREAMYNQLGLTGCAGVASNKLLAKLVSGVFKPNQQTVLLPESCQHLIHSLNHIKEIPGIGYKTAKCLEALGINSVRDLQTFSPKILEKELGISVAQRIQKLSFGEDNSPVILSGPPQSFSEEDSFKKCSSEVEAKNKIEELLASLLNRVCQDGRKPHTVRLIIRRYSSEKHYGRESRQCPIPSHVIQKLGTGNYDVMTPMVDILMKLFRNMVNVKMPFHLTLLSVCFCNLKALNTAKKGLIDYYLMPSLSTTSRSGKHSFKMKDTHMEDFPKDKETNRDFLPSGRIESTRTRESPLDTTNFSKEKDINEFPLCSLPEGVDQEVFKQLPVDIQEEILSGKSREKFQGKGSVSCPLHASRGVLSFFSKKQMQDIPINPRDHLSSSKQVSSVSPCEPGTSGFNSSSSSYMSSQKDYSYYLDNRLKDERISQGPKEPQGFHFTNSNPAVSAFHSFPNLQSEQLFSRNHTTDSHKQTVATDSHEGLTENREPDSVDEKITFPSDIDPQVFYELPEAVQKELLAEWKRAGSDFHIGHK

These compounds were tested against DNA polymerase iota (Homo sapiens) (UniProt Q9UNA4) (assay: qHTS for Inhibitors of Polymerase Iota). Settings: Pol iota fluorescent replication assay, 10 min; series mostly up to 115 µM; activity, negative = inhibition: at the top concentration.
Procedure, shortened: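 Fluorescent replication assay read twice, at 0 min and 10 min after adding 50 nM (final) substrate. Enzyme (10 nM) and compounds were first incubated 15 min at room temperature; enzyme-free buffer wells were negative controls.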
Potency is the fitted concentration of half-maximal effect.

Row | Structure (SMILES) | activity, negative = inhibition | Potency
1 | COc1ccc(C2CC(=O)c3cc(-c4nc(-c5cccc([N+](=O)[O-])c5)cs4)c(=O)n(-c4ccc(C)c(C)c4)c3C2)cc1 (stereo not drawn) | inactive: 20.9% | 
2 | C=CCNc1nc(C(=O)OCC(=O)c2ccc(C)c([N+](=O)[O-])c2)cs1 |  | inconclusive: 17.8 µM [inhibitor, partial curve, poor fit]
3 | COc1cc(C(CCN2CCOCC2)c2c(OC)cc(OC)c3c2OC(=O)CC3c2ccc(N(C)C)cc2)cc(OC)c1OC (stereo not drawn) |  | inconclusive: 63.1 µM [inhibitor, partial curve, poor fit]
4 | COc1ccc(Cn2c(CNC(=O)c3ccc(N(C)C)cc3)nc3cccnc32)cc1 | inactive: -15.4% | 
5 | COc1ccc(C2Nc3ccccc3C(=O)N2c2ccccc2F)cc1COc1ccc(NC(C)=O)cc1 (stereo not drawn) | inactive: -2.11% | 
6 | CNC(=O)c1ccc(OCc2ccccc2)c(OC)c1 |  | inconclusive: 44.7 µM [inhibitor, partial curve]
7 | CN1CCN(C(=O)/C=C/c2c(F)cccc2Cl)CC1 | inactive: 31.2% | 
8 | Cc1ccc(C)c2[nH]c(=O)c(CN(Cc3ccco3)S(=O)(=O)c3ccc4c(c3)OCCO4)cc12 |  | inconclusive: 56.2 µM [inhibitor, partial curve, poor fit]
9 | COc1ccccc1N1C(=O)CSC1=NC(=O)c1ccccc1 |  | inconclusive: 50.1 µM [inhibitor, partial curve, poor fit]
10 | CCCCC(CC)CNC(=O)C(Cc1ccccc1)NS(=O)(=O)c1ccc2c(c1)CCC(=O)N2 (stereo not drawn) | inactive: 7.47% | 
11 | Cc1ccc2sc(N(Cc3cccnc3)C(=O)CCOc3ccccc3)nc2c1C | inactive: 15.6% | 
12 | CCN(c1ccccc1)C(CNS(=O)(=O)c1ccccc1)c1ccccc1 (stereo not drawn) | inactive: -12.2% | 
13 | Cc1nn(-c2ccccc2)nc1C(=O)Oc1cc(C(F)(F)F)nn1-c1ccccc1 |  | inconclusive: 39.8 µM [inhibitor, single point]
14 | COc1cc([N+](=O)[O-])cc(/C=N/NC(=O)c2ccc(C)nc2)c1O |  | inconclusive: 89.1 µM [inhibitor, partial curve, poor fit]
15 | O=C1N=c2ccccc2=C1c1sc(NS(=O)(=O)c2ccccc2)nc1O |  | inconclusive: 15.8 µM [inhibitor, single point]
16 | CCOc1cccc(=O)c2c(C)n(C)c(C)c12 |  | active: 22.4 µM
17 | O=C(CSc1nc2ccccc2o1)Nc1nc2ccc(Br)cc2s1 | inactive: 6.55% | 
18 | C[C@H](CO)N1C[C@H](C)[C@@H](CN(C)Cc2ccc3c(c2)OCO3)Oc2c(NS(C)(=O)=O)cccc2C1=O |  | inconclusive: 89.1 µM [inhibitor, single point]
19 | CC(C)(C)Nc1nc(Cl)nc(NC2CCCCC2)n1 | inactive: 34.9% | 
20 | O=C(Nc1cccc(NC(=O)c2ccccc2Cl)c1)c1ccc(F)cc1 |  | inconclusive: 89.1 µM [inhibitor, partial curve, poor fit]
21 | CCc1ccccc1NC(=O)Cn1ccn(-c2cc(C)cc(C)c2)c(=O)c1=O |  | inconclusive: 31.6 µM [inhibitor, single point]
22 | Nc1nc(=S)[nH]c2n[nH]nc12 |  | active: 39.8 µM

Given as tab-separated lines: part of the list above.
Row	Structure (SMILES)	activity, negative = inhibition	Potency
15	O=C1N=c2ccccc2=C1c1sc(NS(=O)(=O)c2ccccc2)nc1O		inconclusive: 15.8 µM [inhibitor, single point]
16	CCOc1cccc(=O)c2c(C)n(C)c(C)c12		active: 22.4 µM
17	O=C(CSc1nc2ccccc2o1)Nc1nc2ccc(Br)cc2s1	inactive: 6.55%	

(more compounds)

Row | Structure (SMILES) | activity, negative = inhibition | Potency
23 | CCC1CSC(Nc2ccc(C(=O)/C=C/c3ccc(OC)c(OC)c3)cc2)=N1 (stereo not drawn) |  | inconclusive: 56.2 µM [inhibitor, partial curve, poor fit]
24 | COc1ccc(CCNC(=O)Cn2c(=O)n(-c3ccc(C)c(C)c3)c(=O)c3c(C)c(C)sc32)cc1OC |  | inconclusive: 3.55 µM [inhibitor, partial curve, poor fit]
25 | CCCS(=O)(=O)c1nc(S(=O)(=O)c2ccc(C)cc2)c(NCc2ccccn2)s1 |  | inconclusive: 89.1 µM [inhibitor, single point]
26 | C=C1C=C(C(F)F)n2ncc(C(=O)NCc3ccccc3OC)c2N1 | inactive: 7.89% | 
27 | O=C(CCc1nc(-c2ccccc2Cl)no1)NCc1ccco1 |  | inconclusive: 5.01 µM [inhibitor, partial curve, poor fit]
28 | CCCCN(C)Cc1c(C)[nH]c2ccccc2c1=O |  | inconclusive: 89.1 µM [inhibitor, single point]
29 | CCCCC(=O)Nc1ccc(C2C(=O)c3ccccc3C2=O)cc1 | inactive: 97% | 
30 | COc1cccc(N2CCN(S(=O)(=O)c3c(C)[nH]c(C)c3C(=O)N3CCCC3)CC2)c1 |  | inconclusive: 89.1 µM [inhibitor, single point]
31 | CC(=O)Nc1ccc(S(=O)(=O)N2C(C)CCCC2C)cc1 (stereo not drawn) |  | inconclusive: 22.4 µM [inhibitor, full curve, poor fit]
32 | O=C(CSc1nnc(-c2cccc(S(=O)(=O)N3CCCC3)c2)n1-c1ccccc1)Nc1cccc(C(=O)O)c1 |  | inconclusive: 70.8 µM [inhibitor, partial curve]
33 | O=C(N/N=C1/CC2CCC1C2)c1cc2ccccc2cc1O (stereo not drawn) | inactive: 6.16% | 
34 | O=C(Cn1nc(-c2ccccc2)nc(Cc2ccccc2)c1=O)Nc1ccccc1 | inactive: 8.29% | 
35 | COc1cc(/C=C/C(=O)OCC(=O)Nc2cccc(Oc3ccccc3)c2)ccc1O |  | inconclusive: 28.2 µM [inhibitor, partial curve, poor fit]
36 | CC[C@]12c3[nH]c4ccccc4c3CCN1C(=O)C(CC(=O)NCC13CC4CC(CC(C4)C1)C3)C[C@@H]2C(=O)N1CCN(C(=O)C2CC2)CC1 (stereo partly drawn) | inactive: 11% | 
37 | Cc1cccc(C(=O)Nc2ccc(C(=O)OCc3cc(=O)n4nc(C5CC5)sc4n3)cc2)c1 | inactive: -5.52% | 
38 | Cc1cccc(NC(=O)NNC(=O)c2ccccn2)c1 |  | inconclusive: 39.8 µM [inhibitor, single point]
39 | O=C(Nc1ccccn1)Nc1ccccc1Cl | inactive: -9.13% | 
40 | Cc1ccc(NC(=O)C2CCCN2S(=O)(=O)c2ccc3nc(-c4ccccc4)[nH]c3c2)cc1F (stereo not drawn) |  | inconclusive: 39.8 µM [inhibitor, partial curve, poor fit]
41 | COC(=O)[C@@]1(C)[C@H]2C(=O)N(Cc3ccccc3)C(=O)[C@H]2[C@H]2CN=C(SCC(=O)c3ccccc3)N21 |  | inconclusive: 25.1 µM [inhibitor, single point]
42 | COc1cc(C(=O)NCCSc2ccc(F)cc2)cc(OC)c1OC | inactive: -1.08% | 
43 | Cc1ccccc1C(=O)Nc1ccc(C(=O)NNC(=O)CCCOc2ccc(Cl)cc2Cl)cc1 |  | inconclusive: 22.4 µM [inhibitor, full curve]
